Results deposited as PubChem BioAssay AID1259425 (University of Nebraska Medical Center, 2018).
Aim: 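Find knockdowns that reproduce the gene expression pattern seen when KSR1 is lost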 (primary screen). Cells: HCT116 human colon cancer cells. Reagent: siRNA pool against human genes, 50 nM siRNA. Measured: 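After 50 nM siRNA pool, branched-DNA assay measures six marker transcripts per well, minus blank, normalised to the geometric mean of two housekeeping transcripts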. Direction: BNIP3L mRNA: higher = more BNIP3L transcript after knockdown; NDRG1 mRNA: higher = more NDRG1 transcript after knockdown; BNIP3 mRNA: higher = more BNIP3 transcript after knockdown; ALDOC mRNA: higher = more ALDOC transcript after knockdown.
The whole screen tested about 14,000 reagents; shown is a part drawn at random. Further read-outs or replicates are left out here. The record does not give: the time to read-out.

no.	target	BNIP3L mRNA, set 1	NDRG1 mRNA, set 1	BNIP3 mRNA, set 1	ALDOC mRNA, set 1
1	GPATCH1	0.221	0.71	0.291	0.033
2	USF1	0.0901	0.118	0.322	0.00246
3	CBFB	0.0193	0.0906	0.256	0.00819
4	SEC31A	0.161	0.144	0.254	0.0476
5	LINC00208	0.188	0.137	0.365	0.0671
6	SEC11A	0.248	0.274	0.548	0.0405
7	EFEMP2	0.173	0.173	0.451	0.0465
8	GRIK5	0.0725	0.331	0.255	0.0209
9	SHISA5	0.259	0.425	0.567	0.0669
10	FXYD6	1.43	5.09	2.88	0.808
11	HJURP	0.181	0.0911	0.363	0.0276

Continued, starting with the last 2 of the part before.
no.	target	BNIP3L mRNA, set 1	NDRG1 mRNA, set 1	BNIP3 mRNA, set 1	ALDOC mRNA, set 1
10	FXYD6	1.43	5.09	2.88	0.808
11	HJURP	0.181	0.0911	0.363	0.0276
12	PKNOX2	0.101	0.425	0.232	0.028
13	ZC3H15	0.0621	0.153	0.295	0.0646
14	IRF6	0.09	0.0938	0.211	0.0111
15	VCAM1	0.118	0.0556	0.243	0.00104
16	MOBP	0.0834	0.173	0.224	0.0408
17	CCNG1	0.0973	0.106	0.324	0.0147
18	POMK	0.12	0.241	0.335	0.0299
19	PTGS2	0.0724	0.111	0.212	0.0135
20	PLOD1	0.122	0.376	0.345	0.0331
